This series can be described thus: in vivo. The note with it: mouse, po, single application, 7-day, unfed white NMRI-mice, read-out: Toxicity LD50 p.o. The method, then: The acute 7-day-toxicity is determined after a single application per os in white NMRI-mice which had not been fed. The calculation of the LD50 is carried out by probitanalysis by means of electronic data processing (see L. Cavalli-Sforza, Gustav Fischer-Verlag, Stuttgart (1964), Grundbegriffe der Biometrie, pp. 153).

The structures appear in SMILES notation. Structures can show the parent of a compound that is named as a salt.

In general, LD50 refers to the dose at which mortality reaches 50%. In the case of `CN1[C@@H]2CC[C@H]1C[C@@H](OC(=O)C(CO)c1ccccc1)C2` (stereo partly shown) [A, atropine sulfate, reference compound], the LD50 at 168 h amounted to 721 mg/kg.

These data come from patent publication US4177287A, “Pharmaceutical compositions of N1 -acyl-N2 -phenyldiaminopropanols and process for their preparation” (Kali-Chemie Pharma GmbH, priority 1977, dated 1979).
